Taken from: PubChem BioAssay AID504774 (Drosophila RNAi Screening Center, 2011)
The deposit covers about 23,000 reagents; shown is an unselected part of those with a known target gene and a result. 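Values are quantile-normalised luminescence on an arbitrary scale; higher means more cells surviving MMS.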 Names joined by + are all predicted targets of the reagent.

Test: 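Fly genes whose loss alters survival after alkylation damage to DNA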 (primary screen)
Cells: Drosophila Kc167 cells
Knock-down reagent: long dsRNA against Drosophila genes, about 0.25 µg dsRNA per well
Time to read-out: about 6 days: 3 days knock-down, then 3 days with or without MMS
Conditions: methyl methanesulphonate 0.004% (w/v) for 3 days after knock-down
Measurement: 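Viability in wells given MMS, read as ATP luminescence, normalised by quantiles plate by plate and averaged across replicates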
Direction: mean viability with MMS and viability with MMS: higher = more surviving cells after MMS

| Gene | PubChem SID | mean viability with MMS | viability with MMS, replicate 1 | viability with MMS, replicate 2 |
| --- | --- | --- | --- | --- |
| CG17777 | SID104197929 | 3.75e6 | 4.22e6 | 4.23e6 |
| CG9570 | SID104200479 | 3.64e6 | 4.07e6 | 4.14e6 |
| timeout | SID104192742 | 3.54e6 | 4.09e6 | 3.95e6 |
| timeout | SID104196870 | 3.43e6 | 3.99e6 | 3.77e6 |
| timeout | SID104196871 | 3.73e6 | 4.20e6 | 4.28e6 |
| timeout | SID104196872 | 3.56e6 | 4.09e6 | 4.01e6 |
| timeout | SID104196873 | 3.51e6 | 3.84e6 | 4.12e6 |
| timeout | SID104201253 | 3.64e6 | 4.20e6 | 4.03e6 |
| NimA (Nimrod A) | SID104181145 | 3.60e6 | 4.12e6 | 4.01e6 |
| NimA (Nimrod A) | SID104201716 | 3.53e6 | 3.99e6 | 4.01e6 |
| CG11029 | SID104181911 | 3.48e6 | 4.03e6 | 3.87e6 |
| CG31468 | SID104193429 | 3.53e6 | 4.04e6 | 3.96e6 |
| CG5614 | SID104195637 | 3.49e6 | 4.21e6 | 4.18e6 |
| CG12766 | SID104188087 | 3.51e6 | 3.93e6 | 4.03e6 |
| His4:CG33883 + His4:CG33889 + His4:CG33899 + 20 more | SID104201060 | 3.33e6 | 3.77e6 | 3.80e6 |
| CG9586 | SID104183062 | 3.72e6 | 4.39e6 | 4.05e6 |
| CG40948 (retired record) | SID104200736 | 2.23e6 | 3.89e6 | 3.89e6 |
| Sil1 (Sil1 nucleotide exchange factor) | SID104194034 | 3.33e6 | 3.77e6 | 3.81e6 |
| Gr59d (Gustatory receptor 59d) | SID104201987 | 3.89e6 | 4.08e6 | 4.53e6 |
| Chs2 (Chitin synthase 2) | SID104191622 | 3.39e6 | 3.79e6 | 3.84e6 |
| Tdh (L-threonine dehydrogenase) | SID104191580 | 3.59e6 | 4.11e6 | 4.01e6 |
| Cpr66Cb (Cuticular protein 66Cb) | SID104190561 | 3.56e6 | 3.97e6 | 4.12e6 |
| CG15547 | SID104194877 | 3.43e6 | 3.85e6 | 3.87e6 |
| CG2004 | SID104197992 | 3.49e6 | 3.91e6 | 4.02e6 |
| Cypl (Cyclophilin-like) | SID104188154 | 3.57e6 | 4.03e6 | 4.05e6 |
| Sap-r (Saposin-related) | SID104196641 | 3.53e6 | 3.94e6 | 4.09e6 |
| Sap-r (Saposin-related) | SID104201540 | 3.62e6 | 4.04e6 | 4.13e6 |
| Tfb1 (Transcription factor B1) | SID104186874 | 3.17e6 | 3.69e6 | 3.64e6 |
| btd (buttonhead) | SID104198539 | 3.40e6 | 3.92e6 | 3.81e6 |

Next part, starting with the last 4 of the part before.
| Gene | PubChem SID | mean viability with MMS | viability with MMS, replicate 1 | viability with MMS, replicate 2 |
| --- | --- | --- | --- | --- |
| Sap-r (Saposin-related) | SID104196641 | 3.53e6 | 3.94e6 | 4.09e6 |
| Sap-r (Saposin-related) | SID104201540 | 3.62e6 | 4.04e6 | 4.13e6 |
| Tfb1 (Transcription factor B1) | SID104186874 | 3.17e6 | 3.69e6 | 3.64e6 |
| btd (buttonhead) | SID104198539 | 3.40e6 | 3.92e6 | 3.81e6 |
| Blm (Bloom syndrome helicase) | SID104196703 | 3.47e6 | 3.92e6 | 3.93e6 |
| CG5555 | SID104195626 | 3.54e6 | 4.09e6 | 3.94e6 |
| Lst (Limostatin) | SID104186938 | 3.58e6 | 4.12e6 | 3.99e6 |
| peo (pendolino) | SID104185787 | 3.65e6 | 4.03e6 | 4.26e6 |
| gskt (gasket) | SID104193848 | 3.81e6 | 4.33e6 | 4.14e6 |
| Hasp (Hig-anchoring scaffold protein) | SID104181814 | 3.66e6 | 3.93e6 | 4.43e6 |
| CG4115 | SID104195337 | 3.57e6 | 3.99e6 | 4.09e6 |
| CG31210 (retired record) + CG4836 | SID104201642 | 3.69e6 | 4.19e6 | 4.09e6 |
| Jhedup (Juvenile hormone esterase duplication) | SID104186965 | 3.63e6 | 4.05e6 | 4.15e6 |
| lt (light) | SID104183551 | 3.49e6 | 4.03e6 | 3.88e6 |
| CG17108 | SID104182368 | 3.60e6 | 4.24e6 | 3.92e6 |
| CG17108 | SID104201749 | 3.48e6 | 3.92e6 | 4.00e6 |
| Acp98AB (retired record) | SID104201485 | 3.48e6 | 3.88e6 | 4.03e6 |
| Echs1 (Enoyl-CoA hydratase, short chain 1) | SID104186791 | 3.50e6 | 3.92e6 | 3.85e6 |
| RpS21 (Ribosomal protein S21) | SID104180625 | 1.40e6 | 3.69e6 | – |
| ATPsynC (ATP synthase, subunit C) | SID104195028 | 3.43e6 | 3.82e6 | 3.96e6 |
| His3:CG33818 + His3:CG33857 + His3:CG33806 + 20 more | SID104201059 | 2.78e6 | 3.63e6 | 3.63e6 |
| Octbeta1R (Octopamine beta1 receptor) | SID104195926 | 3.53e6 | 4.20e6 | 3.80e6 |
| CG33288 | SID104191276 | 3.53e6 | 3.96e6 | 4.05e6 |
| CG32187 | SID104190313 | 3.60e6 | 4.10e6 | 4.06e6 |
| CG10154 | SID104189499 | 3.56e6 | 4.02e6 | 4.04e6 |
| Aldh (Aldehyde dehydrogenase) | SID104182509 | 3.49e6 | 3.99e6 | 3.95e6 |
| spirit (Serine Protease Immune Response Integrator) | SID104197994 | 3.69e6 | 4.45e6 | 3.91e6 |
| TTLL6B (Tubulin tyrosine ligase-like 6B) | SID104195724 | 3.42e6 | 3.91e6 | 3.79e6 |
| CG33330 (retired record) | SID104192845 | 3.19e6 | 3.77e6 | 3.68e6 |
| CG33330 (retired record) | SID104195287 | 3.65e6 | 4.16e6 | 4.15e6 |
| CG10734 | SID104185790 | 3.60e6 | 3.91e6 | 4.24e6 |
| CG11227 | SID104200268 | 3.53e6 | 4.01e6 | 4.01e6 |
| Rbp4 (RNA-binding protein 4) | SID104196610 | 3.86e6 | 4.48e6 | 4.24e6 |
| CG2871 | SID104198022 | 3.64e6 | 4.15e6 | 4.10e6 |
| CG2871 | SID104201392 | 3.36e6 | 3.74e6 | 3.98e6 |
| CG2909 | SID104198033 | 3.46e6 | 3.93e6 | 3.89e6 |
| Loxl1 (Lysyl oxidase-like 1) | SID104194095 | 3.45e6 | 3.89e6 | 3.95e6 |
| Ca-alpha1T (Ca[2+]-channel protein alpha[[1]] subunit T) | SID104197634 | 3.41e6 | 3.87e6 | 3.88e6 |
| Ca-alpha1T (Ca[2+]-channel protein alpha[[1]] subunit T) | SID104197895 | 3.51e6 | 3.98e6 | 3.99e6 |
| Ca-alpha1T (Ca[2+]-channel protein alpha[[1]] subunit T) | SID104198148 | 3.40e6 | 3.87e6 | 3.84e6 |
| Ca-alpha1T (Ca[2+]-channel protein alpha[[1]] subunit T) | SID104198149 | 3.45e6 | 3.97e6 | 3.85e6 |
| Ca-alpha1T (Ca[2+]-channel protein alpha[[1]] subunit T) | SID104201177 | 3.45e6 | 3.97e6 | 3.89e6 |
| Lcp65Ab2 + Lcp65Ab1 | SID104190132 | 3.57e6 | 3.99e6 | 4.12e6 |
| Lcp65Ab2 + Lcp65Ab1 | SID104190135 | 3.68e6 | 4.32e6 | 4.03e6 |
